The list shows a part of the results. At the low end of the ranking the order means little.

The test deals with T1, PUM1 PUF domain R2-VFQ R3-THE R4-TFR N899V + Y900F + C935T + R936H + Q939E + N971T + H972F + Q975R (UniProt Q14671).
T1 sequence: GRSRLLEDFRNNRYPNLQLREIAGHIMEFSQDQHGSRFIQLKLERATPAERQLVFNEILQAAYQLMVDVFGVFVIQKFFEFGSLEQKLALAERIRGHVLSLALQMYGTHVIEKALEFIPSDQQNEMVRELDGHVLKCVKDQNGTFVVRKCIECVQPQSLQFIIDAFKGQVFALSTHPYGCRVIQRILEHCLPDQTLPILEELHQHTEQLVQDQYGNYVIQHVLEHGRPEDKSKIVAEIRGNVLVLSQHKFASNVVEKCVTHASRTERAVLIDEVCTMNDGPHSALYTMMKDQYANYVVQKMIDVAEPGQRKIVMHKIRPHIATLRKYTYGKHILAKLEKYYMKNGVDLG
Conditions: yeast three-hybrid, YBZ-1, SC-Leu-His + 0.5 mM 3-AT, 4 days.
On to “GGCUAGAACUAGUGGAUCCCCCGGCGCCCGGCGGCUCGAGCCCGGGUAAGUUAAAGACGUCUGCAUGCCGCCGGGCGCCAUGCCUGCAGGUCGACUCUAGAAAACAUG”, for which the binding signal (log2 enrichment (interaction score)) is less than -5.59.

Turning to “GGCUAGAACUAGUGGAUCCCCCGGCGCCCGGCGGCUCGAGCCCGGGUAAGUUUAAAACGUCUGCAUGCCGCCGGGCGCCAUGCCUGCAGGUCGACUCUAGAAAACAUG”, the binding signal (log2 enrichment (interaction score)) was -3.83. The figure for “GGCUAGAACUAGUGGAUCCCCCGGCGCCCGGCGGCUCGAGCCCGGGUAAGGUGACUUGGUCUGCAUGCCGCCGGGCGCCAUGCCUGCAGGUCGACUCUAGAAAACAUG” is less than -5.46.

On to “GGCUAGAACUAGUGGAUCCCCCGGCGCCCGGCGGCUCGAGCCCGGGUAAGUGGACAGAGUCUGCAUGCCGCCGGGCGCCAUGCCUGCAGGUCGACUCUAGAAAACAUG”, for which the binding signal (log2 enrichment (interaction score)) is -5.15.

The record behind these values is article PMC8384837.
